The values that follow come from paper doi:10.1101/156513.

By UniProt entry, the sequences of proteins in these tests, tags left out. Chains listed by the source or under a name are the forms on record and can include a tag or linker. Residues count along the entry.
UniProt P16989: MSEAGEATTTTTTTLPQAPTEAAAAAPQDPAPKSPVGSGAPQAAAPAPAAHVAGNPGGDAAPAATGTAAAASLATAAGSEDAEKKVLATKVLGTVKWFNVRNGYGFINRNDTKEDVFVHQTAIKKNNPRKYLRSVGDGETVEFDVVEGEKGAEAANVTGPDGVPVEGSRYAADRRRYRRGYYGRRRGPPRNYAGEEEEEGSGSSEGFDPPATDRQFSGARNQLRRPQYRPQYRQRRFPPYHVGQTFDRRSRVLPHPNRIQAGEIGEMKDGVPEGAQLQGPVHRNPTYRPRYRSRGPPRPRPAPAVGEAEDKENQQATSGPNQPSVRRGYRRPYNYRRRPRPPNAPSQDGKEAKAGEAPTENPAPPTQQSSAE
GFP-tagged ZPSG region of ZO-2 (ZPSG-2, 509-880) (Q9UDY2, residues 509-880): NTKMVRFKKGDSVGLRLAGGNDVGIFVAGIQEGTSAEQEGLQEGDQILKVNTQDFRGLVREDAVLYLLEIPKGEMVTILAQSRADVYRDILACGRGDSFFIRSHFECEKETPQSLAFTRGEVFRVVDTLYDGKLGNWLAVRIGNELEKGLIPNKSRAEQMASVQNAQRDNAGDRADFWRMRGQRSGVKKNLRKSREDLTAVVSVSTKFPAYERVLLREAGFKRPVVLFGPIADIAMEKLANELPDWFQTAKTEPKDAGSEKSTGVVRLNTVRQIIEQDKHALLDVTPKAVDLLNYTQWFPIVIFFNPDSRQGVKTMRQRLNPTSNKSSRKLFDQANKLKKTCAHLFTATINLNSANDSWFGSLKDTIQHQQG
GST fused to the C-terminal fragment of ZO-2 (890-1190) (Q9UDY2, residues 890-1190): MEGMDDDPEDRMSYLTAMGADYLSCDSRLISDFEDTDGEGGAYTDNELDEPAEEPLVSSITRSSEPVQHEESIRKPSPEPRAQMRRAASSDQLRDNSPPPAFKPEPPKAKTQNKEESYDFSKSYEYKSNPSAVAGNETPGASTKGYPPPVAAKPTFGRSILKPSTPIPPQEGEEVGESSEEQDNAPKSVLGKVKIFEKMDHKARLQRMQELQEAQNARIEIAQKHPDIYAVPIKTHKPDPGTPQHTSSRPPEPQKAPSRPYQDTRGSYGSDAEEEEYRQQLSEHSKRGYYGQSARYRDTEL
GST-ZPSG-1 (Q07157, residues 417-806): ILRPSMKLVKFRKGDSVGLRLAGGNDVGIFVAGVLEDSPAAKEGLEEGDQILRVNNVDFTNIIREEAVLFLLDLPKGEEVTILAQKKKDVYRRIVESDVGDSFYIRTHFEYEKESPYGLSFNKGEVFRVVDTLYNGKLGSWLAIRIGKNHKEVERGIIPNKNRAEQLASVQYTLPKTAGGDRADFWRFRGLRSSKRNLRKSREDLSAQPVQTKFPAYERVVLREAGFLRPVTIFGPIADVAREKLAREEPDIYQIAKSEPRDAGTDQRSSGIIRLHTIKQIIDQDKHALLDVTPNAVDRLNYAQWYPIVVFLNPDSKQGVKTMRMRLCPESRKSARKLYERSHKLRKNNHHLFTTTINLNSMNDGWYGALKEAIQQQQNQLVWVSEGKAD
GFP-tagged C-terminal ZO-1 fragment (GFP-ZO-1-1619-1748) (Q07157, residues 1619-1748): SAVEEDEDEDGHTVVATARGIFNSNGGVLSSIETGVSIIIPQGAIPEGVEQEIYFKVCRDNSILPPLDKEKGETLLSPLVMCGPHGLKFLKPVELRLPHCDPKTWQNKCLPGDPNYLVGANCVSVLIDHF
UniProt Q61146, residues 406-521: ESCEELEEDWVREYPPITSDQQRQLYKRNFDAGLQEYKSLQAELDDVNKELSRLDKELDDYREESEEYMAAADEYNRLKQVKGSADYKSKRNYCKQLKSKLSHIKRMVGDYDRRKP

Like-named read-outs stand apart in the source and are kept apart here. Results are given in words; binding and its absence hold for the method and conditions named. Binding seen in cells or lysates may run through a third protein. Some results given as binding are weak or reduced against the parent protein; the word gives no strength.

What all share (test): pull-down
The target in one test is GST-DbpA (UniProt P16989).
For test [1], the target named is GST fused to the C-terminal fragment of ZO-2 (890-1190) (UniProt Q9UDY2).
Test [2] has the same target. The source holds these as a separate data set.
The target in test [3] is GST-ZPSG-1 (UniProt Q07157).
Test [4] addresses GST-ZPSG-1 (UniProt Q07157). The source holds these as a separate data set.

With “GFP-tagged ZPSG region of ZO-1 (ZPSG-1, residues 417-806) (from UniProt Q07157 417-806) (domain or fragment)”, the binding entry in the test with GST-DbpA is listed as “binds”. In the case of “GFP-tagged ZPSG region of ZO-2 (ZPSG-2, 509-880) (from UniProt Q9UDY2 509-880) (domain or fragment)”, the binding entry (in test [1]; in test [2]; with GST-DbpA) was “binds” in each case. As for “HA-tagged C-terminal occludin (residues 406-521) (from UniProt Q61146 406-521) (domain or fragment)”, the binding result in the test with GST-ZPSG-1 [3] is on record as “binds”. On to “GFP-tagged C-terminal ZO-1 fragment (GFP-ZO-1-1619-1748) (from UniProt Q07157 1619-1748) (domain or fragment)”, for which the binding entry with GST-ZPSG-1 [4] is “binds”.
